Assay [1] addresses PD1 on the surface of T cells (canine PBMC stimulated with ConA) (canine). Nature of the assay: flow cytometry, FIG. 14. In general terms: In flow cytometry, cells or beads pass a laser one at a time.
The target is the same in assay [2]. Nature of the assay: flow cytometry on ConA-stimulated canine PBMC.
In assay [3] the target is canine PD-1 protein amino acids 25-168 with His tag (canine). In words: Octet BLI on PD-1 His. (In general: BLI is a label-free optical method that tracks binding on a fibre tip over time.)
Assay [4] has the same target. In words: ELISA on PD-1 His. In general terms: ELISA stands for enzyme-linked immunosorbent assay.

These are yes or no findings as the source states them, for the method shown. Some results given as binding are weak or reduced against the parent protein; the word gives no strength.

B1: caninized monoclonal antibody C3 (antibody, V domains shown)
VH: EVRLQQSGAELVKPGASVKLSCTASGFNIKDTYLHWLKERPEQGLEWIGRIDPAIGNTRYDPKFQVKATITADTSSNTAYLQLSSLTSEDSAVYYCARGFYGMDYWGQGTSVTVSS
VL: QIVLTQSPAIMSASPGEKVTMTCSASSSVSYMFWYQQKPGSSPRLWIYDTSNLVSGVPARFSGSRSGTSYSLTISSMEAEDAATYYCQQYSGYPYTFGGGTKLEIKR
notes: Variable domains as for M3; also called C3(36.39); 36.39
Take B1: the binding entry in assay [1] and in assay [2] was “binds” each time.

B2: PD-1 A-M11 (antibody, V domains shown)
VH: EVQLQQSGAEVVKPGASVKLSCTASGFNIKDTYMHWVKQRPEQGLEWIGRIDPAIGNPKYDPKFQGRATITADTSSNTAYLQLSSLTSEDTAVYYCASGFYAMDCWGQGTSVTVSS
VL: QIVLTQSPAIMSASPGEKVTMTCSASSSITYMFWYQQKPGSSPRLWIYDTSNLVSGVPARFSGSKSGTSYSLTITSMEAEDAATYYCQQYSGYPSTFGSGTKLEIK
notes: Mouse IgG1 kappa, hybridoma supernatant; The VL is therefore uncertain; also called 9B04
Regarding B2, the binding result in assay [3] and in assay [4] was “binds” throughout.

B3: caninized monoclonal antibody C11 (antibody, V domains shown)
VH: EVQLQQSGAEVVKPGASVKLSCTASGFNIKDTYMHWVKQRPEQGLEWIGRIDPAIGNPKYDPKFQGRATITADTSSNTAYLQLSSLTSEDTAVYYCASGFYAMDCWGQGTSVTVSS
VL: QIVLTQSPAIMSASPGEKVTMTCSASSSITYMFWYQQKPGSSPRLWIYDTSNLVSGVPARFSGSKSGTSYSLTITSMEAEDAATYYCQQYSGYPSTFGSGTKLEIKR
notes: Variable domains as for M11; also called C11(37.40); 37.40
For the molecule B3, the binding result in assay [1] and in assay [2] was “binds” each time.

These data come from patent US20220324977A1 (BEIJING SINOGENE BIOTECHNOLOGY, published 2022).
